No constants are given. Whether binding was seen depends on the method and setting. In cells and extracts the contact can be indirect. Some entries that bind do so weakly or less than the wild type.
What was measured:
[1] = target: G5_(845-1508)-L1367P-TAP (human) (UniProt Q8TEQ6); experiment: co-IP
[2] = target: G5_(845-1508)-WT-TAP (human) (UniProt Q8TEQ6); experiment: co-IP

binding [1]: binds
binding [2]: binds
B1: Gemin5 endogenous protein (natural protein, human (endogenous in HEK293), UniProt Q8TEQ6 1-1508, looked up)
chain: MGQEPRTLPPSPNWYCARCSDAVPGGLFGFAARTSVFLVRVGPGAGESPGTPPFRVIGELVGHTERVSGFTFSHHPGQYNLCATSSDDGTVKIWDVETKTVVTEHALHQHTISTLHWSPRVKDLIVSGDEKGVVFCYWFNRNDSQHLFIEPRTIFCLTCSPHHEDLVAIGYKDGIVVIIDISKKGEVIHRLRGHDDEIHSIAWCPLPGEDCLSINQEETSEEAEITNGNAVAQAPVTKGCYLATGSKDQTIRIWSCSRGRGVMILKLPFLKRRGGGIDPTVKERLWLTLHWPSNQPTQLVSSCFGGELLQWDLTQSWRRKYTLFSASSEGQNHSRIVFNLCPLQTEDDKQLLLSTSMDRDVKCWDIATLECSWTLPSLGGFAYSLAFSSVDIGSLAIGVGDGMIRVWNTLSIKNNYDVKNFWQGVKSKVTALCWHPTKEGCLAFGTDDGKVGLYDTYSNKPPQISSTYHKKTVYTLAWGPPVPPMSLGGEGDRPSLALYSCGGEGIVLQHNPWKLSGEAFDINKLIRDTNSIKYKLPVHTEISWKADGKIMALGNEDGSIEIFQIPNLKLICTIQQHHKLVNTISWHHEHGSQPELSYLMASGSNNAVIYVHNLKTVIESSPESPVTITEPYRTLSGHTAKITSVAWSPHHDGRLVSASYDGTAQVWDALREEPLCNFRGHRGRLLCVAWSPLDPDCIYSGADDFCVHKWLTSMQDHSRPPQGKKSIELEKKRLSQPKAKPKKKKKPTLRTPVKLESIDGNEEESMKENSGPVENGVSDQEGEEQAREPELPCGLAPAVSREPVICTPVSSGFEKSKVTINNKVILLKKEPPKEKPETLIKKRKARSLLPLSTSLDHRSKEELHQDCLVLATAKHSRELNEDVSADVEERFHLGLFTDRATLYRMIDIEGKGHLENGHPELFHQLMLWKGDLKGVLQTAAERGELTDNLVAMAPAAGYHVWLWAVEAFAKQLCFQDQYVKAASHLLSIHKVYEAVELLKSNHFYREAIAIAKARLRPEDPVLKDLYLSWGTVLERDGHYAVAAKCYLGATCAYDAAKVLAKKGDAASLRTAAELAAIVGEDELSASLALRCAQELLLANNWVGAQEALQLHESLQGQRLVFCLLELLSRHLEEKQLSEGKSSSSYHTWNTGTEGPFVERVTAVWKSIFSLDTPEQYQEAFQKLQNIKYPSATNNTPAKQLLLHICHDLTLAVLSQQMASWDEAVQALLRAVVRSYDSGSFTIMQEVYSAFLPDGCDHLRDKLGDHQSPATPAFKSLEAFFLYGRLYEFWWSLSRPCPNSSVWVRAGHRTLSVEPSQQLDTASTEETDPETSQPEPNRPSELDLRLTEEGERMLSTFKELFSEKHASLQNSQRTVAEVQETLAEMIRQHQKSQLCKSTANGPDKNEPEVEAEQPLCSSQSQCKEEKNEPLSLPELTKRLTEANQRMAKFPESIKAWPFPDVLECCLVLLLIRSHFPGCLAQEMQQQAQELLQKYGNTKTYRRHCQTFCM

Reference: publication doi:10.1101/2022.01.25.477707 (bioRxiv, 2022)
